# Reference: the supplement of paper PMC12819154, “High-throughput peptide-centric local stability assay extends protein–ligand identification to membrane proteins, tissues and bacteria” (Nature Structural & Molecular Biology, 2025)
# Protein sequences, listed by entry. Tags and fused reporters are not part of them. Lines headed by an entry give the natural chain unless they say otherwise; changes in a name come on top.
# UniProt Q9UQL6: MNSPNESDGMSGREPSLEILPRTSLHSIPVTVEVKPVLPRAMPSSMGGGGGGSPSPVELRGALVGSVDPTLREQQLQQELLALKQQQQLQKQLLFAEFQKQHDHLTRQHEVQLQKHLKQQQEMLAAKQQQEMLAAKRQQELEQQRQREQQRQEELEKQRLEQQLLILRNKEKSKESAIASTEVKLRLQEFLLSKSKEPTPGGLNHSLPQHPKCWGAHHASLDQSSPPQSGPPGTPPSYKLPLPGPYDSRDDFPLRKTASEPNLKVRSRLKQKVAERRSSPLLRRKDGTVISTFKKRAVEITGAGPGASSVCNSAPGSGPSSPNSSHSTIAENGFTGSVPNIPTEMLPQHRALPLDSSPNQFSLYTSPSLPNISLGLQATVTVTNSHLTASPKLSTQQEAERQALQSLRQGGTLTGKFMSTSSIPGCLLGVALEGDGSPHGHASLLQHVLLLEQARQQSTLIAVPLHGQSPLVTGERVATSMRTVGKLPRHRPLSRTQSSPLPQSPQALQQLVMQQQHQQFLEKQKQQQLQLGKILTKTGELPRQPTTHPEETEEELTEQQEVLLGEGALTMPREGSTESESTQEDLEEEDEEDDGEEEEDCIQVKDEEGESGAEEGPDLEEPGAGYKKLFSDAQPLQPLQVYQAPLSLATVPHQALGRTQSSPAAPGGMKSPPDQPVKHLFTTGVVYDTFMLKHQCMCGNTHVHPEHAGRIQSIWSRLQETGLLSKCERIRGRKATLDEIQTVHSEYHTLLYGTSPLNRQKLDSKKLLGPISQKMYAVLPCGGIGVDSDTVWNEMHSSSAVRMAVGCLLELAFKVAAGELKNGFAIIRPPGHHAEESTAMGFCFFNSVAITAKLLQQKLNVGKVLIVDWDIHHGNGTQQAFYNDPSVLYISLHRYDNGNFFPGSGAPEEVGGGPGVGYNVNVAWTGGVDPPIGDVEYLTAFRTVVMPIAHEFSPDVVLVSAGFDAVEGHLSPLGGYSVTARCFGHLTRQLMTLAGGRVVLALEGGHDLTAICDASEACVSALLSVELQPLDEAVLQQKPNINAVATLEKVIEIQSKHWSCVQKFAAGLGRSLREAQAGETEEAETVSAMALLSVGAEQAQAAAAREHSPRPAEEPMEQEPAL
# UniProt Q9Y3A5: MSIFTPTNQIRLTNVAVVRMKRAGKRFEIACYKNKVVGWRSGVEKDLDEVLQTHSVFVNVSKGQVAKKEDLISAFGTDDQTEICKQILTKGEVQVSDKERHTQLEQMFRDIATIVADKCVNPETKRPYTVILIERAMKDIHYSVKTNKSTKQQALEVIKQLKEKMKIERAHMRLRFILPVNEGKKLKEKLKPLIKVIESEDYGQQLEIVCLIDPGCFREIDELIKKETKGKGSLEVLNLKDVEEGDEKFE
# UniProt Q9UL45: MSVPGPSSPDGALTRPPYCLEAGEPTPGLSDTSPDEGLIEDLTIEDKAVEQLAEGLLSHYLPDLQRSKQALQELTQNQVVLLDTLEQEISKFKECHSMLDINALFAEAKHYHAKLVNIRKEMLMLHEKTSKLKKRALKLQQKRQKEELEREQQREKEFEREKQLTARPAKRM
# UniProt Q9UKV3: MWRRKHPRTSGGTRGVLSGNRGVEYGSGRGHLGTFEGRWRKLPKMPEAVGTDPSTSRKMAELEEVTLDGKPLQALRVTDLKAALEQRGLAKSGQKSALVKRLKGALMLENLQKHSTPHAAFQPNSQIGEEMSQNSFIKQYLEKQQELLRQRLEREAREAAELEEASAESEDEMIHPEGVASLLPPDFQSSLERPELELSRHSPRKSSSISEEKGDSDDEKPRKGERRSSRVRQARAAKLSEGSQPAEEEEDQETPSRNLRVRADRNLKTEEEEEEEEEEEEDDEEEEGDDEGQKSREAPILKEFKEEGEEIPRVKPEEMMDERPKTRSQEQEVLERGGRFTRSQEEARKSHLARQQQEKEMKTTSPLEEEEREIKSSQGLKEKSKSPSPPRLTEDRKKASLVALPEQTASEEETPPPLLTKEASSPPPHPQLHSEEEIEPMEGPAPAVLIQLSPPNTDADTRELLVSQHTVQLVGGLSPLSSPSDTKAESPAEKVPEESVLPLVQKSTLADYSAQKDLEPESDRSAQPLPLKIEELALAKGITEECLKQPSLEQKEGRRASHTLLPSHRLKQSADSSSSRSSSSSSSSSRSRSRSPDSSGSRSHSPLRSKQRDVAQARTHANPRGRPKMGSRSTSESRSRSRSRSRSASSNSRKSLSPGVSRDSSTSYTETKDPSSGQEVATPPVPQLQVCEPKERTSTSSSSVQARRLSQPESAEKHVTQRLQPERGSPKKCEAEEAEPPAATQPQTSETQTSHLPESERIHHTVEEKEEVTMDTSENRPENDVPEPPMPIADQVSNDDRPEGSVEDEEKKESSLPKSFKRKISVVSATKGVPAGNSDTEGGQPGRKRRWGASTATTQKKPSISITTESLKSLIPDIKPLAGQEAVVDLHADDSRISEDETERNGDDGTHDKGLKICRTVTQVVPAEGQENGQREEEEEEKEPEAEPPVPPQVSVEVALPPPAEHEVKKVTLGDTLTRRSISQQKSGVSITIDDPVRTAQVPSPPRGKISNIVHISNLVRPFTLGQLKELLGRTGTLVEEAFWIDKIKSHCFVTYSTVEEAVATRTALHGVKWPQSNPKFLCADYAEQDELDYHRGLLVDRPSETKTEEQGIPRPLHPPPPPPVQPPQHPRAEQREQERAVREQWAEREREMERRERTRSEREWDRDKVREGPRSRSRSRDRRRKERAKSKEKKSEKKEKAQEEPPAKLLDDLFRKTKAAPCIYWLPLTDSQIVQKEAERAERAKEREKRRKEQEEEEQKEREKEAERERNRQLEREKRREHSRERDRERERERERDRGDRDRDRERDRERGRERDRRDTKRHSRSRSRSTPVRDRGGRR
# UniProt Q9Y3A3: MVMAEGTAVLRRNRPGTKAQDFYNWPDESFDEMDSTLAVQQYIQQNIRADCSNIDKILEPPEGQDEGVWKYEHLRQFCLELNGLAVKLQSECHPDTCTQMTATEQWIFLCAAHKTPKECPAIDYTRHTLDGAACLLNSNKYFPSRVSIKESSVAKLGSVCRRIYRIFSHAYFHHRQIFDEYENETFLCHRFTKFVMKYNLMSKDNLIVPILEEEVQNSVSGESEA
# UniProt Q9Y2H9: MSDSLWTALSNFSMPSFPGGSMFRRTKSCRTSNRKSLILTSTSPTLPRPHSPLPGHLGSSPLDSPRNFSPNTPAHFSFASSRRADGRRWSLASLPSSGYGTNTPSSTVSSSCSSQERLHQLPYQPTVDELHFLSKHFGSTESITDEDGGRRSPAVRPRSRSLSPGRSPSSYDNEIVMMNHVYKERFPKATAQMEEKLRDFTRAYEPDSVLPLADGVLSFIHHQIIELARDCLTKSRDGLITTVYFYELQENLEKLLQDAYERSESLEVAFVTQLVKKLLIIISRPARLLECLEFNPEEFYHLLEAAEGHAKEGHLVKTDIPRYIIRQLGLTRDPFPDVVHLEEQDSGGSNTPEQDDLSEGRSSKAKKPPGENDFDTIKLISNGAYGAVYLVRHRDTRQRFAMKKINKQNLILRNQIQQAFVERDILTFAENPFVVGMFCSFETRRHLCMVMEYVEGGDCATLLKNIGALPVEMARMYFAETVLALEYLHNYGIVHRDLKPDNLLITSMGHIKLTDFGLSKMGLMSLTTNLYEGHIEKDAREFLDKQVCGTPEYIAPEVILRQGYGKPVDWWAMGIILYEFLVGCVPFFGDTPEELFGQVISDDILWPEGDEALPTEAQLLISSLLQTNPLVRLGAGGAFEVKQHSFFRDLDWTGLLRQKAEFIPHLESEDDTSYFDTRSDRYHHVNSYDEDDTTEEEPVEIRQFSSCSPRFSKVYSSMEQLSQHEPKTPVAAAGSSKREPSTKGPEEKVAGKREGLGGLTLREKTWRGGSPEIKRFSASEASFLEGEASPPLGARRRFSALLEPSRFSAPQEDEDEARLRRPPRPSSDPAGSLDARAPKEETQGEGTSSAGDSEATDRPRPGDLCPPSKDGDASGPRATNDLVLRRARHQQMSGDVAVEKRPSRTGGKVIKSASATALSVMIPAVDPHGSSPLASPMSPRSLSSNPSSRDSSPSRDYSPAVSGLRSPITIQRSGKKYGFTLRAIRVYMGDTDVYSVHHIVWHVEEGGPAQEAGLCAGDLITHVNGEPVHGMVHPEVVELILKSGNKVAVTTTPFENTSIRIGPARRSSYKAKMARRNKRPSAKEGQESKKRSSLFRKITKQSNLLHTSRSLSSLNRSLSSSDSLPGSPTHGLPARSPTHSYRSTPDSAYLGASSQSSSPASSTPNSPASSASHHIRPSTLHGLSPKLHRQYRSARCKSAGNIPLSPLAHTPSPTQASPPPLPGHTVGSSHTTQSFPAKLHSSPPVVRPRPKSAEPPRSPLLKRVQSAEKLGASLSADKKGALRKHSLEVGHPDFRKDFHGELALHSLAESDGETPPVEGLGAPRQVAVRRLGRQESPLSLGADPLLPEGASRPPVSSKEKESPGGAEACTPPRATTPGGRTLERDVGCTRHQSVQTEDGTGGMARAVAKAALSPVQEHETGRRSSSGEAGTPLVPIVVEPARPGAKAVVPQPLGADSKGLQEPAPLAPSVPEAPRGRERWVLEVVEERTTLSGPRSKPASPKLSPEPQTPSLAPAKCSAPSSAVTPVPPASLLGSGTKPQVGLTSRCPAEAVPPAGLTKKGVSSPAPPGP
# UniProt Q9Y2G9: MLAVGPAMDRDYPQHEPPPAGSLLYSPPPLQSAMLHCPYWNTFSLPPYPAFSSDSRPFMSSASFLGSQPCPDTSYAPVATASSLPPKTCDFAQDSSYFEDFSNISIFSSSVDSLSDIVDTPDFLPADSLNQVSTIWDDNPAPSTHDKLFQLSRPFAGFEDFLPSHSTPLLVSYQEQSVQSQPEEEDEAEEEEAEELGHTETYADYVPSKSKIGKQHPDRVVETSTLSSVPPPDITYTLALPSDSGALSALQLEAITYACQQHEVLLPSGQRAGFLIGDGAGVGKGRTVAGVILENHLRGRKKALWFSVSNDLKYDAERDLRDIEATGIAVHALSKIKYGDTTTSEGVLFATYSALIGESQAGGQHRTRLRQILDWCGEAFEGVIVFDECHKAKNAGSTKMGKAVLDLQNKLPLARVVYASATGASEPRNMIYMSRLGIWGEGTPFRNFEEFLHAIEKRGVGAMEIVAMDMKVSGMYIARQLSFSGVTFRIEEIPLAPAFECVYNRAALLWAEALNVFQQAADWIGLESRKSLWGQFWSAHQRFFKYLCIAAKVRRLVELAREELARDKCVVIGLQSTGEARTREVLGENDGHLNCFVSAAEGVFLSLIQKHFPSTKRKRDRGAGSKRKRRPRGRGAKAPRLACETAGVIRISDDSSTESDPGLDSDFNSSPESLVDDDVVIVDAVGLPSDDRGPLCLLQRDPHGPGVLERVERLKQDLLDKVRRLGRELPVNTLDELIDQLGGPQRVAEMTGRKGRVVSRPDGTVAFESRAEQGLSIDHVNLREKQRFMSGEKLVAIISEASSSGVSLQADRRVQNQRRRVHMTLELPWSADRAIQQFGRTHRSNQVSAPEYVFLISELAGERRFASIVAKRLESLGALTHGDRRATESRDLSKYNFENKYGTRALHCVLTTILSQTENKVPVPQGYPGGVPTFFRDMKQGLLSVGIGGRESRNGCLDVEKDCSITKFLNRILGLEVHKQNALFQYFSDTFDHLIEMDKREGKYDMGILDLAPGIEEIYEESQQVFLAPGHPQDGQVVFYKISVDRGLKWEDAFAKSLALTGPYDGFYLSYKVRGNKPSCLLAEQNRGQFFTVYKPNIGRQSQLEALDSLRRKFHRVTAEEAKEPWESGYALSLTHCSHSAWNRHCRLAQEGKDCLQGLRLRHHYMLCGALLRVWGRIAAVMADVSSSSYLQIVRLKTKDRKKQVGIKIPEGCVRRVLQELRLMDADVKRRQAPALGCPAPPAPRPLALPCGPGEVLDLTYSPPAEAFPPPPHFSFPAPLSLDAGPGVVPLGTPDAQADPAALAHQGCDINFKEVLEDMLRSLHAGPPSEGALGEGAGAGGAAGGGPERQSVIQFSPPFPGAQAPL
# UniProt Q9UPT9: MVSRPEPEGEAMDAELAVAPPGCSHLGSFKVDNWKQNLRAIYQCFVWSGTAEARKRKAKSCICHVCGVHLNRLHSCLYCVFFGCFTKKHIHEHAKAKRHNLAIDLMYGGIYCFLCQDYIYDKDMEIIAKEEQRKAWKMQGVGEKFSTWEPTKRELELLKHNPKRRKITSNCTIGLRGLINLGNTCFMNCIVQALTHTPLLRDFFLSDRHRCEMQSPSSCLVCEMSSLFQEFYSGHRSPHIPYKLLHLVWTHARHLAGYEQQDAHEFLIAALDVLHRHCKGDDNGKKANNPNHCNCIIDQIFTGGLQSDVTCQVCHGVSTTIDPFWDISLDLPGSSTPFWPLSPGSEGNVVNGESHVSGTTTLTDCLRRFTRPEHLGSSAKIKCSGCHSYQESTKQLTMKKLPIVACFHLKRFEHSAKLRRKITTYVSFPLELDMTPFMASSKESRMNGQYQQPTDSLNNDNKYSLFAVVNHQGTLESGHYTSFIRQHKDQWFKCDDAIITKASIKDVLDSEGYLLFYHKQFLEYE
# This is one part of the list. Most values lie at the level of the controls, where differences are scatter.
# Compound: CN[C@@H]1C[C@H]2O[C@@](C)([C@@H]1OC)n1c3ccccc3c3c4c(c5c6ccccc6n2c5c31)C(=O)NC4 [staurosporine]
# Test: log2 fold change of tryptic peptide abundance, ligand vs vehicle (limited proteolysis) (log2 ratio); higher = more trypsin-susceptible (destabilized)
# Conditions: ligand concentration: 20 uM; sample: K562 cleared lysate; digestion: 4 min, 22 C (HT-PELSA RT4min, Orbitrap Astral)
row,Target,log2 fold change
1,"GNE (peptide sequence: ILLAGCPSYDKLLSAK, peptide start residue: 178) (UniProt Q9Y223)",-0.492
2,"SH2B3 (peptide sequence: GWSEFCELHAVAAAR, peptide start residue: 25) (UniProt Q9UQQ2)",-0.616
3,"UniProt Q9Y2G0 (peptide sequence: FANIEEDTPSYHR, peptide start residue: 126)",0.118
4,"HDAC5 (peptide sequence: KLLGPISQK, peptide start residue: 766) (UniProt Q9UQL6)",0.415
5,"SBDS (peptide sequence: FILPVNEGK, peptide start residue: 176) (UniProt Q9Y3A5)",0.336
6,"MKLN1 (peptide sequence: QHNYTEAFESLQKK, peptide start residue: 186) (UniProt Q9UL63)",0.321
7,"BLOC1S6 (peptide sequence: QKEELEREQQR, peptide start residue: 144) (UniProt Q9UL45)",0.399
8,"ACIN1 (peptide sequence: TGTLVEEAFWIDKIK, peptide start residue: 1035) (UniProt Q9UKV3)",0.737
9,"NOB1 (peptide sequence: VSVTVSDDGTLHMHFSR, peptide start residue: 296) (UniProt Q9ULX3)",-0.784
10,"UniProt Q9Y3A3 (peptide sequence: ECPAIDYTR, peptide start residue: 118)",-0.14
11,"MAST1 (peptide sequence: DLKPDNLLITSMGHIK, peptide start residue: 635) (UniProt Q9Y2H9)",-0.406
12,"SBNO2 (peptide sequence: AEQGLSIDHVNLR, peptide start residue: 771) (UniProt Q9Y2G9)",-0.39
13,"DICER1 (peptide sequence: LPSDPFTHLAPK, peptide start residue: 641) (UniProt Q9UPY3)",0.35
14,"GTF3C4 (peptide sequence: EILPFTDRK, peptide start residue: 752) (UniProt Q9UKN8)",0.234
15,"SMG5 (peptide sequence: STLECAYR, peptide start residue: 105) (UniProt Q9UPR3)",-0.398
16,"UniProt Q9Y253 (peptide sequence: VPVTSSEAK, peptide start residue: 454)",0.403
17,"SUGT1 (peptide sequence: KGICEYHEK, peptide start residue: 85) (UniProt Q9Y2Z0)",0.301
18,"DNPEP (peptide sequence: VLDLGSPQLAMHSIR, peptide start residue: 439) (UniProt Q9ULA0)",-0.349
19,"MRTO4 (peptide sequence: DNLHQVSKR, peptide start residue: 87) (UniProt Q9UKD2)",0.798
20,"UniProt Q9UMZ2 (peptide sequence: SELATFDLSVQGSHKR, peptide start residue: 1057)",-0.2
21,"USP22 (peptide sequence: HLAGYEQQDAHEFLIAALDVLHR, peptide start residue: 254) (UniProt Q9UPT9)",0.217
22,"UniProt Q9ULD5 (peptide sequence: NCTEGIVIK, peptide start residue: 444)",0.438
23,"MRPS33 (peptide sequence: LFGEVTRPTNSK, peptide start residue: 18) (UniProt Q9Y291)",-0.319
24,"CNOT6 (peptide sequence: VLPFELGK, peptide start residue: 111) (UniProt Q9ULM6)",0.201
25,"MRPS7 (peptide sequence: WMITECR, peptide start residue: 186) (UniProt Q9Y2R9)",-0.237

# Given bar-delimited: entries from further up.
row | Target | log2 fold change
24 | CNOT6 (peptide sequence: VLPFELGK, peptide start residue: 111) (UniProt Q9ULM6) | 0.201
25 | MRPS7 (peptide sequence: WMITECR, peptide start residue: 186) (UniProt Q9Y2R9) | -0.237
